These are yes or no findings as the source states them, for the method shown. Some entries that bind do so weakly or less than the wild type. Where a sequence is shown, tags or fusion partners need not be part of it.
Columns and labels:
[1] = molecular target: recombinant human Synaptojanin1 (528-873) (human) (UniProt O43426); test: displacement of Synaptojanin from immobilised CA13016 (NANEX column) by CA13080; A280 and SDS-PAGE
[2] = molecular target: recombinant human Synaptojanin1 (528-873) (human) (UniProt O43426); test: NANEX column, elution with CA13080

Chains of the proteins cited; added tags and fusions are not shown. Residues count along the entry.
UniProt O43426, residues 528-873: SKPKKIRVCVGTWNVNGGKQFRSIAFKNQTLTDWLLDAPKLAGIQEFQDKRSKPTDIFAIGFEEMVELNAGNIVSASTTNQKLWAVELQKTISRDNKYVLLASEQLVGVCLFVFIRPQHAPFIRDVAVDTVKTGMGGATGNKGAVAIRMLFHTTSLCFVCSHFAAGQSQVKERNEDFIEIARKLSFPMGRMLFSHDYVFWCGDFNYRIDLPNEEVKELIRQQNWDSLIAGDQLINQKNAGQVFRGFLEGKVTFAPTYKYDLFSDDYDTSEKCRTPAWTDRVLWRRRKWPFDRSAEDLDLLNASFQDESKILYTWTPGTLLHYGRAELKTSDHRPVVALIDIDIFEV

binding [1]: binds
binding [2]: binds
B1: CA13080 Synaptojanin-specific Nb (Stripper; C-term. 6xHis+EPEA) (VHH)
VHH: QVQLVESGGGLVQAGGSLRLSCAASRFMFDDYIIGWFRQAPGKEREGVSCISNSDGSTNYADSVKGRFTISSDNARNAVYLQMNSLKPEDTAVYYCAAQRAFMTRLCLNIYYAHWGQGTQVTVSS

Reference: US20240027467A1
